Results reported in publication PMC2679146.
These are yes or no findings as the source states them, for the method shown. In cells and extracts the contact can be indirect. Some binding calls cover weakened binding; strength is not graded here.

By UniProt entry, the sequences of proteins in these tests, tags left out.
UniProt Q14839: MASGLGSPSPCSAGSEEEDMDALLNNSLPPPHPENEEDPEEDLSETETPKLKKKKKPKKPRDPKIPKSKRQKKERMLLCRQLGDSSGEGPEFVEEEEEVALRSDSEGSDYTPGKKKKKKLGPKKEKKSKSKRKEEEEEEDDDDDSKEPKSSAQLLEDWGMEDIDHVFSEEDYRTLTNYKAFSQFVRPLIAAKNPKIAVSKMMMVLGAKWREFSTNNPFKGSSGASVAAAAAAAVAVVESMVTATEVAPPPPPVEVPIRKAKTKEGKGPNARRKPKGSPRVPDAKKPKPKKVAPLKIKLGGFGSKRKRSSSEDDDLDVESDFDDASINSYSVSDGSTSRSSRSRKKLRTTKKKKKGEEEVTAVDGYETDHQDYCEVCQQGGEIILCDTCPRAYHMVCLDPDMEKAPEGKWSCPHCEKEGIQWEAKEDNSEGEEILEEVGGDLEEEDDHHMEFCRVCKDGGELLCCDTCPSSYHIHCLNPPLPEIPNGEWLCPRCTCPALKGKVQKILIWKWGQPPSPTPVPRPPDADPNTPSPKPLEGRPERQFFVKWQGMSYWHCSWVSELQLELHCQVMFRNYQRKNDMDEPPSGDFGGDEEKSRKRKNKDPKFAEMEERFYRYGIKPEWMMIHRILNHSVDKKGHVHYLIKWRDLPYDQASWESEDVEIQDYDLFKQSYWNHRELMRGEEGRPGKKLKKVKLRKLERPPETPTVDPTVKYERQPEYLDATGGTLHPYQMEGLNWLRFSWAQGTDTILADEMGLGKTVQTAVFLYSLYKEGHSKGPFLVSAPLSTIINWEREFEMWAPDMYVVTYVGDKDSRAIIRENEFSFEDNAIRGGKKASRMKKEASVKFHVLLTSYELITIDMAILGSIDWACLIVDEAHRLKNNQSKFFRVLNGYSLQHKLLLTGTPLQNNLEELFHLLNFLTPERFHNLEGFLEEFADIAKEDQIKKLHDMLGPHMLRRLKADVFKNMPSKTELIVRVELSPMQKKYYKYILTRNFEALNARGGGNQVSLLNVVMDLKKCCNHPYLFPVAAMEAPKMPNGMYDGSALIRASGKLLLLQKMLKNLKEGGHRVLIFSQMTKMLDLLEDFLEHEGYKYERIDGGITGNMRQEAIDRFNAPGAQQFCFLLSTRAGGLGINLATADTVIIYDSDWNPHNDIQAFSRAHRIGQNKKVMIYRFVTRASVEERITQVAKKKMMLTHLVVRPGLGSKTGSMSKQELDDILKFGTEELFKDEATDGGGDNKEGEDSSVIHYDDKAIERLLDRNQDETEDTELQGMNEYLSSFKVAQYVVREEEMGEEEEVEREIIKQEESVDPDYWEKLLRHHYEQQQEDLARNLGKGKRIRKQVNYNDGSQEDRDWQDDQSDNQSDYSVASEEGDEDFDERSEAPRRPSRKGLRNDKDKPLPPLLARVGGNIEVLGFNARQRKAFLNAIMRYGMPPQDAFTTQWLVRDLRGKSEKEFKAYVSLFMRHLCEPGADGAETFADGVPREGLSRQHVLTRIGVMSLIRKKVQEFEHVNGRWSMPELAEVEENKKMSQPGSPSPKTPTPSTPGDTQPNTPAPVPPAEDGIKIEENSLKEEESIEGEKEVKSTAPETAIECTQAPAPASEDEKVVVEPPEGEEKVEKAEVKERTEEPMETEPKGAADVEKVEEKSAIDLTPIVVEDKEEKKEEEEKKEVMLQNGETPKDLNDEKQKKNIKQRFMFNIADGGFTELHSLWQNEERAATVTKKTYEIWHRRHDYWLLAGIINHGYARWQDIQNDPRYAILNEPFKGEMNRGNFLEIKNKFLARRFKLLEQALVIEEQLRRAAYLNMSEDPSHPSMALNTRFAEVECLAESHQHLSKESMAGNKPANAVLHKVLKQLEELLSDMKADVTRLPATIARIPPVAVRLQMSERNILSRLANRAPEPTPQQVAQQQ
UniProt Q13547: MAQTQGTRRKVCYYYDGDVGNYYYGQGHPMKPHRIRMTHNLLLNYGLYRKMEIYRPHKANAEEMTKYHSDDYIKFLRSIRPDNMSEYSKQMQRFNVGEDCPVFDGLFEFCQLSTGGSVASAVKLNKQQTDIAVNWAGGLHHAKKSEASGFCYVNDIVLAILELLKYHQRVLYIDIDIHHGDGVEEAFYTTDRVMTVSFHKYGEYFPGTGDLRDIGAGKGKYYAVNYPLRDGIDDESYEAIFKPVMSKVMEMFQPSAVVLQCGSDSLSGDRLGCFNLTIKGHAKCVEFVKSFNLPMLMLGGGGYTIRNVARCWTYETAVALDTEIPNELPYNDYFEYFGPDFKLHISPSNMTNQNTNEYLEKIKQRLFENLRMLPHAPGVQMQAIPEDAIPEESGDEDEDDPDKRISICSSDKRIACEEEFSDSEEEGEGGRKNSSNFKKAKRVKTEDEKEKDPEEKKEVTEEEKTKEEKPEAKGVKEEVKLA
UniProt Q92769: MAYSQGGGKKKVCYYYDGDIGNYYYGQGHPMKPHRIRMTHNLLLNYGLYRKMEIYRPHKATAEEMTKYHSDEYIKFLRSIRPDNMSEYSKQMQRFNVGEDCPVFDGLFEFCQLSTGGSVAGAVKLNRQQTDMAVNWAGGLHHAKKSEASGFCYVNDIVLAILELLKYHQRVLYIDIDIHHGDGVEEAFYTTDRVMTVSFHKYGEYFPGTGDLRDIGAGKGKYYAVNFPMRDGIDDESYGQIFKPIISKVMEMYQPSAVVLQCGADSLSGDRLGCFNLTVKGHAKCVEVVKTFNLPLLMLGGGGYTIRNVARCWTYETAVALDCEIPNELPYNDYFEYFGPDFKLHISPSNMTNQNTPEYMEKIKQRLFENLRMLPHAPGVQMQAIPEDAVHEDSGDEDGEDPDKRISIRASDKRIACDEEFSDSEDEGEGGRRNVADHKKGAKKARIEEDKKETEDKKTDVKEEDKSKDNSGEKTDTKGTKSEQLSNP
UniProt Q09028: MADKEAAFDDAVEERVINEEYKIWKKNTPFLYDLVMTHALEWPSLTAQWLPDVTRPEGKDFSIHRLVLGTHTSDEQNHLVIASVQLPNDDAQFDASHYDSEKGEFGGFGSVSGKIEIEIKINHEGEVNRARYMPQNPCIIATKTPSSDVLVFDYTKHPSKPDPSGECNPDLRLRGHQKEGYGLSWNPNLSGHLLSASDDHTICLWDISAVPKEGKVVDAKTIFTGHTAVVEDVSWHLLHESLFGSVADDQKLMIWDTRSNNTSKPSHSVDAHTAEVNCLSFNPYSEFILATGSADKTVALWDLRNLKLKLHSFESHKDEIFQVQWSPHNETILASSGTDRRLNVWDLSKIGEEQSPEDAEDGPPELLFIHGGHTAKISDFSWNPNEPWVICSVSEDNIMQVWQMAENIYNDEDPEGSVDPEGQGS

Assays:
[1] = biological target: SALL4A (pcDNA3-SALL4A) (UniProt Q9UJQ4); assay: co-IP; 1 mg nuclear protein of SALL4A- or SALL4B-expressing 293T cells or of D3 mouse ES cells, anti-SALL4 antibody or rabbit IgG at 4°C overnight, protein G beads, washes with 0.1% NP-40, Western blots
[2] = biological target: T1, SALL4B (pcDNA3-SALL4B) (UniProt Q9UJQ4); assay: as above
T1 sequence: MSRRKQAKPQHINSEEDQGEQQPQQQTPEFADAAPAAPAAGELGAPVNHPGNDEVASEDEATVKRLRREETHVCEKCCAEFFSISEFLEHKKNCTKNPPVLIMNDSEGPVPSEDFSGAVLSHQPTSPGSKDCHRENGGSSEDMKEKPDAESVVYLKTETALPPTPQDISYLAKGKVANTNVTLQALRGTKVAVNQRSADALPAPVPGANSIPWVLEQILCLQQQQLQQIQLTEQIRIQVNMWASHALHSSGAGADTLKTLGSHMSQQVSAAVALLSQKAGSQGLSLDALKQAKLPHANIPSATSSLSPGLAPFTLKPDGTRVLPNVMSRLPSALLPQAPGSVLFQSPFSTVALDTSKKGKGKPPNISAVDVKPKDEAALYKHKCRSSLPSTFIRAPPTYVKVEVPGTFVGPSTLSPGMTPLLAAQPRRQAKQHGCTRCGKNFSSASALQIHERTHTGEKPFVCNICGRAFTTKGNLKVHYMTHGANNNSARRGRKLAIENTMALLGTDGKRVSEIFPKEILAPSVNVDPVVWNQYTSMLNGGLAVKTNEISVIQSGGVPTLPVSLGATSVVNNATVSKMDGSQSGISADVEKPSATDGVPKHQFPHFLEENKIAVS

[3] = biological target: T1, SALL4B (pcDNA3-SALL4B); assay: co-IP; data not shown; Western blotting of SALL4B-bound proteins

| binding [1] | binding [2] | binding [3] | Substance |
| --- | --- | --- | --- |
| binds | – | – | Mi-2β (from UniProt Q14839 1-1912) |
| binds | – | – | HDAC1 (from UniProt Q13547 1-482) (enzyme) |
| binds | binds | – | HDAC2 (from UniProt Q92769 1-488) (enzyme) |
| – | – | binds | RbAP48 (from UniProt Q09028 1-425) |
